Values from PubChem BioAssay AID1259297 (Sanger Institute, 2017)
The deposit covers 794 reagents; shown is a part drawn at random. 13 of them (1.6%) were called active. 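Calls reflect knock-down without drug only; drug synergy is judged separately, with scores above 0.15 counted as synergy.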 Not all columns of the deposit are shown. The record does not give: the amount of reagent, the time to read-out.

Test: 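Kinase knock-downs that lower colorectal cancer cell viability or act with drugs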 (primary screen)
System: human RCM1 colorectal cancer cell line
Reagent: siRNA pool against human genes
Treatment: separate arms: DMSO vehicle, or one anchor drug at a mild dose: BYL719 1 µM, cetuximab 5 µg/ml, trametinib 10 nM
Measurement: 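Replicate-mean well viability as a share of non-targeting pool control, a robust z-score without drug, and synergy scores for BYL719, cetuximab and trametinib arms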
Direction: viability z-score, knock-down alone: higher = more viable cells than non-targeting controls
Call rule: 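Essential when the viability robust z-score for knock-down alone is below -3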
Calls: active = essential when knocked down alone; inactive = no clear loss of viability alone

CSNK1A1L (GeneID 122011) → viability z-score, knock-down alone: 0.9; activity call: inactive
NEK9 (GeneID 91754) → viability z-score, knock-down alone: -0.0388; activity call: inactive
DTYMK (GeneID 1841) → viability z-score, knock-down alone: 0.9; activity call: inactive
DYRK2 (GeneID 8445) → viability z-score, knock-down alone: -1.47; activity call: inactive
AK1 (GeneID 203) → viability z-score, knock-down alone: 0.9; activity call: inactive
ROR1 (GeneID 4919) → viability z-score, knock-down alone: 0.9; activity call: inactive
ARAF (GeneID 369) → viability z-score, knock-down alone: 0.9; activity call: inactive
TTK (GeneID 7272) → viability z-score, knock-down alone: 0.9; activity call: inactive
HIPK4 (GeneID 147746) → viability z-score, knock-down alone: 0.9; activity call: inactive
CAMK2G (GeneID 818) → viability z-score, knock-down alone: -1.4; activity call: inactive
PRKCG (GeneID 5582) → viability z-score, knock-down alone: -0.357; activity call: inactive
MOK (GeneID 5891) → viability z-score, knock-down alone: 0.628; activity call: inactive
